Assay results taken from article PMC7863998.
Results are given in words; binding and its absence hold for the method and conditions named. In cells and extracts the contact can be indirect. Some entries that bind do so weakly or less than the wild type. For some assays here: Sequences can lack the tags named with a protein.

Protein sequences, listed by entry. Tags and fused reporters are not part of them.
UniProt Q3TKT4: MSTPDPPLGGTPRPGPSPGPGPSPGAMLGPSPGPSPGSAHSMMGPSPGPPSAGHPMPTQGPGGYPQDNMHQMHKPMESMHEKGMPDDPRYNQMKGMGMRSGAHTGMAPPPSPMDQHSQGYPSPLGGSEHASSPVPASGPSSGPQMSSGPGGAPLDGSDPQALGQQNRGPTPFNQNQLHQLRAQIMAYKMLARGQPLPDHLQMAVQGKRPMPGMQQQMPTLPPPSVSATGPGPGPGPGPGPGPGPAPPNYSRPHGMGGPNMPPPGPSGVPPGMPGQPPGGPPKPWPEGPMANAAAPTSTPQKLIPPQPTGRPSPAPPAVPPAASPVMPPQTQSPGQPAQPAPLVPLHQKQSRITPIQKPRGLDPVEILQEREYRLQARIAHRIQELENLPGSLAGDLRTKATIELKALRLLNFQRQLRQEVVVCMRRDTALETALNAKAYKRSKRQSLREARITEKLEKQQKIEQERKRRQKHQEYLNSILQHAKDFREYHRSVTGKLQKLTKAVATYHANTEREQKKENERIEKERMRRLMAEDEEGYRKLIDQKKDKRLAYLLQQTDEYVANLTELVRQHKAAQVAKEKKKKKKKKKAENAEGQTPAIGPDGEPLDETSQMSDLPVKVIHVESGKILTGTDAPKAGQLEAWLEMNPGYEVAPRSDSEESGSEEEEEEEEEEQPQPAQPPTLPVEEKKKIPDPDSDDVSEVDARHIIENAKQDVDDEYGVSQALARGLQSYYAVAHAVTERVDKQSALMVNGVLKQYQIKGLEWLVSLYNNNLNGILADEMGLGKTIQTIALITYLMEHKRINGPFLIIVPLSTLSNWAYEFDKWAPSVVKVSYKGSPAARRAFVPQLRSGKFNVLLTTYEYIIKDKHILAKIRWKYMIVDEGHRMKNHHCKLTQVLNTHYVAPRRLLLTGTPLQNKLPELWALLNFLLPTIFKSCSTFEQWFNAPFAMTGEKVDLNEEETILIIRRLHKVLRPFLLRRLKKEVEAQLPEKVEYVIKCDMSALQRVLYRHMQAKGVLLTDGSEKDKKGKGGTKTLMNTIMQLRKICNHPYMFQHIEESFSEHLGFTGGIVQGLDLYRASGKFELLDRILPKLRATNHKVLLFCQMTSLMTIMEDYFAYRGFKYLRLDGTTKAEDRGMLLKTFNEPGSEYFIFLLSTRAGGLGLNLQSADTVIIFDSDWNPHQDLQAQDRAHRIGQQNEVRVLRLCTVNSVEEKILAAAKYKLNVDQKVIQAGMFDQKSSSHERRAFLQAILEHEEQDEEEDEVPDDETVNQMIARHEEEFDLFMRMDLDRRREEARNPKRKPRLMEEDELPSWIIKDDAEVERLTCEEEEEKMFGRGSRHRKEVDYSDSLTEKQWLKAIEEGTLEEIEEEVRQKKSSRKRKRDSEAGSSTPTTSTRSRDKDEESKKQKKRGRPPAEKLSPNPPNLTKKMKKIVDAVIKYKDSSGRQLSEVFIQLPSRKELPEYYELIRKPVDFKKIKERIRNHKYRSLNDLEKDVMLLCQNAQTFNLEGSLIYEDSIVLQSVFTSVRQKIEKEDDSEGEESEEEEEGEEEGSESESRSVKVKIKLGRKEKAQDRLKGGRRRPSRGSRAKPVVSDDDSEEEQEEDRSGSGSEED
UniProt P51532: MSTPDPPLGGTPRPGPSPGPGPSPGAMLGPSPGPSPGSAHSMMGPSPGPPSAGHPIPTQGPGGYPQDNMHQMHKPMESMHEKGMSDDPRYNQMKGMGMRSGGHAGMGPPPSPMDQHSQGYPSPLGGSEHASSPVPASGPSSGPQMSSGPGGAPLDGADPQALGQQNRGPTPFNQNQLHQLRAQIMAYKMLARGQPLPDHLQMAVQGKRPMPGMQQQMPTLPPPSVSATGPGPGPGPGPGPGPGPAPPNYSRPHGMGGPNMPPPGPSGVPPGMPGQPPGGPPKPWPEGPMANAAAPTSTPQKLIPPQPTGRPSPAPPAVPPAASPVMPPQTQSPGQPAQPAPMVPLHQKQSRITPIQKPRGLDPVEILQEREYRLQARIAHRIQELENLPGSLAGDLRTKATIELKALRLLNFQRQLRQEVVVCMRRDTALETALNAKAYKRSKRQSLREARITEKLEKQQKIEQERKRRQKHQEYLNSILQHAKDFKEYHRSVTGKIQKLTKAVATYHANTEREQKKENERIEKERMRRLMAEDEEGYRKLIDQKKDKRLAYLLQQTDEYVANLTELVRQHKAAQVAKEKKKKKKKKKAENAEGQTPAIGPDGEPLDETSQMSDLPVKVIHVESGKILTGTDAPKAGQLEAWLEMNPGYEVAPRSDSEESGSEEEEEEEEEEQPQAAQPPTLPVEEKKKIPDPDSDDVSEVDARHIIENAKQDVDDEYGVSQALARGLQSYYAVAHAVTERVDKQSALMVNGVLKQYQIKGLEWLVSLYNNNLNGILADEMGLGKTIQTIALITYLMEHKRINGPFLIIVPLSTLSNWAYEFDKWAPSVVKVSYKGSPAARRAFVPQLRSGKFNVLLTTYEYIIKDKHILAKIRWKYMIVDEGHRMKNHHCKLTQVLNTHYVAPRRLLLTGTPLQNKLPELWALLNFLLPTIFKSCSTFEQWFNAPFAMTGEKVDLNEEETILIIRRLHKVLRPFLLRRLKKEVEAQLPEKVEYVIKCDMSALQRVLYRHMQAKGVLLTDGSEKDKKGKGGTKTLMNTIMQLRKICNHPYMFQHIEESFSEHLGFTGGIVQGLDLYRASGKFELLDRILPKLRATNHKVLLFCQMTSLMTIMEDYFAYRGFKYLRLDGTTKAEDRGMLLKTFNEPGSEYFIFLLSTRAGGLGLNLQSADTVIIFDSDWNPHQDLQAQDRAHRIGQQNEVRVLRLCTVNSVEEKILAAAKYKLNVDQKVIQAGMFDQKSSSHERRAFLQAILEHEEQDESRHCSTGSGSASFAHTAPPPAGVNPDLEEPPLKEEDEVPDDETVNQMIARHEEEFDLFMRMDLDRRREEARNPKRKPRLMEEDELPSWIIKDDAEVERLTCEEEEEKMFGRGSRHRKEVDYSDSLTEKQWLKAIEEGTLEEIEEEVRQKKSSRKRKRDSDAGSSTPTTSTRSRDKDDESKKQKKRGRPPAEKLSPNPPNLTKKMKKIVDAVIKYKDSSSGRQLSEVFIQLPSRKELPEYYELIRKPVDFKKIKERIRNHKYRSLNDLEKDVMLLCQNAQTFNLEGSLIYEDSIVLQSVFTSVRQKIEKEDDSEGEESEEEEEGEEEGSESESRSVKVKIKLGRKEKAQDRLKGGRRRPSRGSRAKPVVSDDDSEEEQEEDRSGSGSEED
UniProt Q8CG47: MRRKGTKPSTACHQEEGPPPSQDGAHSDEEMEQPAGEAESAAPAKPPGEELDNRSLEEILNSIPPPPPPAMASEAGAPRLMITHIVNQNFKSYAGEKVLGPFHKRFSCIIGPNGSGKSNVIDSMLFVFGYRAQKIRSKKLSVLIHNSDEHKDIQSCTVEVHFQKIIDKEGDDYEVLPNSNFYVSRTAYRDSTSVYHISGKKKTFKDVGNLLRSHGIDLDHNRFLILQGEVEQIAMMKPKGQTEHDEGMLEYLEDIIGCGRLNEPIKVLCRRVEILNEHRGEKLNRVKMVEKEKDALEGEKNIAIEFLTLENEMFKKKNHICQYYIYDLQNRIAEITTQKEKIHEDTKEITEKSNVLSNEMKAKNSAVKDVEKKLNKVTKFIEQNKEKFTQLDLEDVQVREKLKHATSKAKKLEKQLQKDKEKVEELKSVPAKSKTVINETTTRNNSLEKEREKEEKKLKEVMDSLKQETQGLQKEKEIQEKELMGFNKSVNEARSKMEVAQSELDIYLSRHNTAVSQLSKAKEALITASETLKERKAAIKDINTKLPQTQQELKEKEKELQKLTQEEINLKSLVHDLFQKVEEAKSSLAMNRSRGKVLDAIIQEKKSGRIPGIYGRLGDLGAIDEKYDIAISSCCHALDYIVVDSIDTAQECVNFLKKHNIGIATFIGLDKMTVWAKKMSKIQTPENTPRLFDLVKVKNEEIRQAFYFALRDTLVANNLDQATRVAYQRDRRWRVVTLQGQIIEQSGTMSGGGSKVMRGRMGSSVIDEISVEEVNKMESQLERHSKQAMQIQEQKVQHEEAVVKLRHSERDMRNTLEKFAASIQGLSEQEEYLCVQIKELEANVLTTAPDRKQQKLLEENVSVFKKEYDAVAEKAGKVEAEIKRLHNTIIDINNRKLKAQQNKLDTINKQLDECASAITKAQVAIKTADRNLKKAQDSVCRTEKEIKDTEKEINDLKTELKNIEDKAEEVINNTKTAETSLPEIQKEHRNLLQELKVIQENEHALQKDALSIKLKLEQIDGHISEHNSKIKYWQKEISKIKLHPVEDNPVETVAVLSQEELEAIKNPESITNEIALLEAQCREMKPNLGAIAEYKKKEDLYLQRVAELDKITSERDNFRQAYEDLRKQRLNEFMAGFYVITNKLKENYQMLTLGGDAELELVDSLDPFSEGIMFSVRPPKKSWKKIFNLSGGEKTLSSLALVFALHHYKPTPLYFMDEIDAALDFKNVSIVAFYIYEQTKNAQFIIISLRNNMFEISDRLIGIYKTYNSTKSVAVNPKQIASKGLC

Key:
[1] = molecular target: T1, C-terminally tagged NCAPH2 (NCAPH2-AID-mCherry) (human) (UniProt Q6IBW4); test: co-IP; immunoprecipitation with a custom anti-NCAPH2 antibody from whole cell extract of HCT-116 NCAPH2-AID-mCherry cells, with or without 5 hour treatment with 500µM auxin; immunoblot
T1 sequence: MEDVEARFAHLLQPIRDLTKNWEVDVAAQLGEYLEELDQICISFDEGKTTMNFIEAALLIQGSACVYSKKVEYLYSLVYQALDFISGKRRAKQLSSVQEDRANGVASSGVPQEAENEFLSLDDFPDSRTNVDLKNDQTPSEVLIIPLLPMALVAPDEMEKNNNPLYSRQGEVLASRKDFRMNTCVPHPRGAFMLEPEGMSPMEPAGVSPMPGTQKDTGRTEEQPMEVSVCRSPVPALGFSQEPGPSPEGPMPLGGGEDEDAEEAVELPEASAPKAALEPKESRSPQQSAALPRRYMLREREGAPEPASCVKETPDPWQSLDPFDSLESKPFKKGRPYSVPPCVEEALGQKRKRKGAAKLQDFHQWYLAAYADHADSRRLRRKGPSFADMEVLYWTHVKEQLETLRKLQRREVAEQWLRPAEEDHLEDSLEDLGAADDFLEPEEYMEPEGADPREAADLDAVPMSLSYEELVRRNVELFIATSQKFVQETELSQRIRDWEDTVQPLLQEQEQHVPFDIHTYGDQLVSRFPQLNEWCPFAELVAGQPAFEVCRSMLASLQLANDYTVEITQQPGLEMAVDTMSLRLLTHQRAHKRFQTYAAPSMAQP

[2] = molecular target: SWI/SNF subunit Smarca4 (mouse thymus) (mouse (endogenous in thymus)) (UniProt Q3TKT4); test: co-IP; immunoprecipitation with B276 or anti-Smarca4 versus IgG from mouse thymic whole cell extract (1% triton buffer), 4°C overnight; immunoblot
[3] = molecular target: T2, Ncaph2 (mouse thymus) (mouse (endogenous in thymus)) (UniProt Q8BSP2); test: as above
T2 sequence: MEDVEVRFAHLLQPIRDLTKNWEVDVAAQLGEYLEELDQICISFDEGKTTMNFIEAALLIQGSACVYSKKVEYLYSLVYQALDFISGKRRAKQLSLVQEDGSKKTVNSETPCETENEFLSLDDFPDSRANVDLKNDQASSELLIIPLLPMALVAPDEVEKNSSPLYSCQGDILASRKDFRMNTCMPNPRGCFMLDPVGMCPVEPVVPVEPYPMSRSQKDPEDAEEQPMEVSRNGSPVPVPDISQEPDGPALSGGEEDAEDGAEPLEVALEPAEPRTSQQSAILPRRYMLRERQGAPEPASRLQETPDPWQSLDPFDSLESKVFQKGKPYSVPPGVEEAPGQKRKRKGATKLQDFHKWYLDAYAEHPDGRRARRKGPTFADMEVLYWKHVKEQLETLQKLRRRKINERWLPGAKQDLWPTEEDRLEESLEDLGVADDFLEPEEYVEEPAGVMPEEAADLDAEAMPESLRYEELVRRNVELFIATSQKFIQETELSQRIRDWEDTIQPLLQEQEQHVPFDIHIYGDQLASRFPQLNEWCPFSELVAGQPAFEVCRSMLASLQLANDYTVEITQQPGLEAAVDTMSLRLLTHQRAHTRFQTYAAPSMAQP

Molecule: SMARCA4 subunit of SWI/SNF (HCT-116) (from UniProt P51532 1-1647)
- binding [1]: no binding

Molecule: SWI/SNF component Arid1a (mouse thymus) (from UniProt A2BH40 1-2283)
- binding [2]: binds

Molecule: SWI/SNF subunit Smarca4 (mouse thymus) (from UniProt Q3TKT4 1-1613)
- binding [3]: no binding

Molecule: Smc4 subunit of condensin (mouse thymus) (from UniProt Q8CG47 1-1286)
- binding [3]: binds

B1: Ncaph2 (mouse thymus) (protein, UniProt Q8BSP2 1-607)
chain: T2 sequence
- binding [2]: no binding
